Source: the supplement of paper PMC12823440, “Inhibitors supercharge kinase turnover through native proteolytic circuits” (Nature, 2025)
This is one part of the list. Hit calls seldom repeat between salt and free forms of one compound.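 Kinases were expressed as nanoluciferase fusions in K562 cells and luminescence was read every 4 h between 2 and 18 h as percent of control, DMSO set to 100% and a positive control to 0%. A time point counts as decreased when the signal drops significantly (2 sigma). The hit call is the authors' own, does not follow from the count of time points alone, and its rule is not shown.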

Protein sequences, listed by entry. Tags and fused reporters are not part of them. Lines headed by an entry give the natural chain unless they say otherwise; changes in a name come on top.
UniProt P28482, whole entry: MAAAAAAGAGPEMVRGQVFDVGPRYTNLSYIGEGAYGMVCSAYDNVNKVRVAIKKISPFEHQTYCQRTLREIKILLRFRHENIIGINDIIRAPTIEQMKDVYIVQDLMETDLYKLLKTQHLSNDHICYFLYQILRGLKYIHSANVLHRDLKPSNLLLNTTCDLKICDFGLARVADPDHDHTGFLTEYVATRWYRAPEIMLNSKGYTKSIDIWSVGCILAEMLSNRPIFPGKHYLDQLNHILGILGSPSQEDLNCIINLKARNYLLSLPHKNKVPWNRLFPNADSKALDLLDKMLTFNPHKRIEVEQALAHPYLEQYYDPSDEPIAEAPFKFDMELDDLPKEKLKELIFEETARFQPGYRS
UniProt O75460: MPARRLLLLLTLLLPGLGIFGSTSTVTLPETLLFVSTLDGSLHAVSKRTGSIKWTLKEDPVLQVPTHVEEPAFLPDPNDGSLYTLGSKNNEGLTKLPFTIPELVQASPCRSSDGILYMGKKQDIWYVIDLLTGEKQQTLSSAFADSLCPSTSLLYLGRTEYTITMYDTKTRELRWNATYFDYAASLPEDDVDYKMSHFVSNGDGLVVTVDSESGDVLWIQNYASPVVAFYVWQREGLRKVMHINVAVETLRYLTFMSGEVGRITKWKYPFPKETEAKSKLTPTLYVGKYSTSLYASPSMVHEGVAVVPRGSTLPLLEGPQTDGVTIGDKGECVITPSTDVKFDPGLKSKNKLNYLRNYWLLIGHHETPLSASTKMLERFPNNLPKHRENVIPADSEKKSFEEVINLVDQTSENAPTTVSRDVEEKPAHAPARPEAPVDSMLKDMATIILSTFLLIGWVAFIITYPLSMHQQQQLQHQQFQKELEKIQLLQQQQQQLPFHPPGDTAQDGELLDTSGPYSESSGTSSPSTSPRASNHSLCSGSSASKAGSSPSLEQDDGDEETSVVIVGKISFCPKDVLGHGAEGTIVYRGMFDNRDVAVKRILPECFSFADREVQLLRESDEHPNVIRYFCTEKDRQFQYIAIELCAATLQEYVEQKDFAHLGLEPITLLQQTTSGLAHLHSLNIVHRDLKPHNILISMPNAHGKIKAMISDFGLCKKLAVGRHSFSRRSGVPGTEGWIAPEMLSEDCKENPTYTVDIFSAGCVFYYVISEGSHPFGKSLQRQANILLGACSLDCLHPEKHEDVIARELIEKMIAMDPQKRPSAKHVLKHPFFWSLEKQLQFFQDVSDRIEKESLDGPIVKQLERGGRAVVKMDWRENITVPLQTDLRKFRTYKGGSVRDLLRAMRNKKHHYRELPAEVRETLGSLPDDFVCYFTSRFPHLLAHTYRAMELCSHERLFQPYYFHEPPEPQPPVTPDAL
UniProt P11362, whole entry, looked up: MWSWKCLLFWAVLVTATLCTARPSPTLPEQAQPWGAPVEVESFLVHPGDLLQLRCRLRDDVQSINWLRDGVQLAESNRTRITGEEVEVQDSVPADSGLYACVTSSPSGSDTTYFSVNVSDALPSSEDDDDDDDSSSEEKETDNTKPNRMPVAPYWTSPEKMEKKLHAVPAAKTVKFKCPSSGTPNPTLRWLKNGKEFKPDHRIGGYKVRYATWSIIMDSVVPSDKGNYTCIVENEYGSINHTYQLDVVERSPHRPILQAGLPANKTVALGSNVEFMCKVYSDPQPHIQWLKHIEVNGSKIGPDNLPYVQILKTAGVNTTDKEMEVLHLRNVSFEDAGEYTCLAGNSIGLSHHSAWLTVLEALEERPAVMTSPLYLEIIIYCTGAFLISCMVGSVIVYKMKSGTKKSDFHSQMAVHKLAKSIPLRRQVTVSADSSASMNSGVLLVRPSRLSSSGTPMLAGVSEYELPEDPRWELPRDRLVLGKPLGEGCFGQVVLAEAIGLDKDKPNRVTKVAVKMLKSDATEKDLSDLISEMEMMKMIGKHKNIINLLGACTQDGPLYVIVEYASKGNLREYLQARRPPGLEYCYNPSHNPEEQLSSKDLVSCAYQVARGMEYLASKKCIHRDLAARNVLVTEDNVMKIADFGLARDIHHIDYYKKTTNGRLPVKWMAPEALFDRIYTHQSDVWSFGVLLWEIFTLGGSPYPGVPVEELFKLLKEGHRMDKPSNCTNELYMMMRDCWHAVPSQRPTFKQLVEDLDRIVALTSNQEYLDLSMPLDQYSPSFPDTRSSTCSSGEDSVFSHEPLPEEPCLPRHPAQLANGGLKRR
UniProt Q00534, whole entry: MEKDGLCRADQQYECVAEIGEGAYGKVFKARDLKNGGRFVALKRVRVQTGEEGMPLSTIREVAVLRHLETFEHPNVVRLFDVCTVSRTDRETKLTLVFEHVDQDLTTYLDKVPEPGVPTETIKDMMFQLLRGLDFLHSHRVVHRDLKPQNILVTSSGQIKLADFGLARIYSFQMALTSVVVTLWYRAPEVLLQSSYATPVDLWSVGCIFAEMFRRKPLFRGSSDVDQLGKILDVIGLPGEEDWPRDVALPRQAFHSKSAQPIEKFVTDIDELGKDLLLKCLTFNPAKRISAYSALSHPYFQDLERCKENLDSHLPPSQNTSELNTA
UniProt P09619, whole entry: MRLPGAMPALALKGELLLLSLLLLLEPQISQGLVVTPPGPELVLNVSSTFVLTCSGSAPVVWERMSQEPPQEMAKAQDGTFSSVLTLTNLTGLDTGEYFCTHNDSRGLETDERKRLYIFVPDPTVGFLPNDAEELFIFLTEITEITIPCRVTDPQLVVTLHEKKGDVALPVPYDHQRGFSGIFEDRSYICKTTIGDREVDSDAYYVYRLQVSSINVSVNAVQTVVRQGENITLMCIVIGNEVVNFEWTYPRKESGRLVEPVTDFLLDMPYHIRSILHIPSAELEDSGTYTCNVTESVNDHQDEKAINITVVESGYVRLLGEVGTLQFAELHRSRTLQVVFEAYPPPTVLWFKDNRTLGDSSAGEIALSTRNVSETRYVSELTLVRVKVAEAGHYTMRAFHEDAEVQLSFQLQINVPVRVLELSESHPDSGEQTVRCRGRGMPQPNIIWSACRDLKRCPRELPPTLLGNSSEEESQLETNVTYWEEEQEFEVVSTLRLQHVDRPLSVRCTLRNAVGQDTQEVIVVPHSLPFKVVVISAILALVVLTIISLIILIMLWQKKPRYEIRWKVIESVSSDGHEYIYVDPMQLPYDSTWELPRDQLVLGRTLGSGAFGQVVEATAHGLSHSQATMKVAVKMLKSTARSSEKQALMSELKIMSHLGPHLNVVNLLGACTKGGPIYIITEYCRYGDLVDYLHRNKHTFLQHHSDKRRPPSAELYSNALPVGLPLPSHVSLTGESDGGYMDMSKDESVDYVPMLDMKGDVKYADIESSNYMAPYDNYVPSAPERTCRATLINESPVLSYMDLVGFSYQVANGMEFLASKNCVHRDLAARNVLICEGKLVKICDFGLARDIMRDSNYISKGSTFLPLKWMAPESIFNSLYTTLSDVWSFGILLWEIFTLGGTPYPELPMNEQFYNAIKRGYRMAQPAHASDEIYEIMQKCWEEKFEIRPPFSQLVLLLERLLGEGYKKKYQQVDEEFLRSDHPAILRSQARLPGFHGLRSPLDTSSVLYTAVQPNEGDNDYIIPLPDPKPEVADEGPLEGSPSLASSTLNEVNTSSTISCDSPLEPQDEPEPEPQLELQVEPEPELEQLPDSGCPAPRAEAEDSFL
UniProt P29597: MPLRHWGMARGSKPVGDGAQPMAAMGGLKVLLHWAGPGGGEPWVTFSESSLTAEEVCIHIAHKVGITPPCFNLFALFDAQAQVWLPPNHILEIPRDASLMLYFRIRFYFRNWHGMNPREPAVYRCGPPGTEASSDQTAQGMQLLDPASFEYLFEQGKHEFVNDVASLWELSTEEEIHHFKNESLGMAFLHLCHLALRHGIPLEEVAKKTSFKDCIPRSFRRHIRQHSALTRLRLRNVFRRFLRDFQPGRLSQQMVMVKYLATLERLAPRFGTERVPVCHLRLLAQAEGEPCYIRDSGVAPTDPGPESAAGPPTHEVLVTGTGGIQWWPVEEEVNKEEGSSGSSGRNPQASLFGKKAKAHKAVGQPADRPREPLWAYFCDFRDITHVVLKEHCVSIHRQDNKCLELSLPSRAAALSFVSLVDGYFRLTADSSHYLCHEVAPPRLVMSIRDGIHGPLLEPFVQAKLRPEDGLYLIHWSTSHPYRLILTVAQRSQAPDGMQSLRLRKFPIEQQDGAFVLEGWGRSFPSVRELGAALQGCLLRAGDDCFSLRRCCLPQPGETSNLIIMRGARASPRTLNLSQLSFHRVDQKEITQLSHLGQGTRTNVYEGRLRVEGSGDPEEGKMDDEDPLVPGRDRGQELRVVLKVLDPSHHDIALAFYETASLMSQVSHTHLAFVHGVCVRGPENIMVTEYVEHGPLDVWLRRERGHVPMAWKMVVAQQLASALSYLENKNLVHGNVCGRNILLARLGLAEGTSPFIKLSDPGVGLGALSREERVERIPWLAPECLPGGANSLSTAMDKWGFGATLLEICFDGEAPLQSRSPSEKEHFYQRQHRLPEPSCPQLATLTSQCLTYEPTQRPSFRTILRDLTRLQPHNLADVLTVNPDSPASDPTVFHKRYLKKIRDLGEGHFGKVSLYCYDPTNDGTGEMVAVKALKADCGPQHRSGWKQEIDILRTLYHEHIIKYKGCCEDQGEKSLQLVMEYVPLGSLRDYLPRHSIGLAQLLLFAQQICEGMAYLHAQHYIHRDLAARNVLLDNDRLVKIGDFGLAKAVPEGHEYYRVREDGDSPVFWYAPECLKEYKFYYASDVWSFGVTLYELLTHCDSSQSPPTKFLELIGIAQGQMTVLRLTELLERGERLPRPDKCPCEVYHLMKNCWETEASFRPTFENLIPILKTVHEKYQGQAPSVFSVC
UniProt P31152, whole entry: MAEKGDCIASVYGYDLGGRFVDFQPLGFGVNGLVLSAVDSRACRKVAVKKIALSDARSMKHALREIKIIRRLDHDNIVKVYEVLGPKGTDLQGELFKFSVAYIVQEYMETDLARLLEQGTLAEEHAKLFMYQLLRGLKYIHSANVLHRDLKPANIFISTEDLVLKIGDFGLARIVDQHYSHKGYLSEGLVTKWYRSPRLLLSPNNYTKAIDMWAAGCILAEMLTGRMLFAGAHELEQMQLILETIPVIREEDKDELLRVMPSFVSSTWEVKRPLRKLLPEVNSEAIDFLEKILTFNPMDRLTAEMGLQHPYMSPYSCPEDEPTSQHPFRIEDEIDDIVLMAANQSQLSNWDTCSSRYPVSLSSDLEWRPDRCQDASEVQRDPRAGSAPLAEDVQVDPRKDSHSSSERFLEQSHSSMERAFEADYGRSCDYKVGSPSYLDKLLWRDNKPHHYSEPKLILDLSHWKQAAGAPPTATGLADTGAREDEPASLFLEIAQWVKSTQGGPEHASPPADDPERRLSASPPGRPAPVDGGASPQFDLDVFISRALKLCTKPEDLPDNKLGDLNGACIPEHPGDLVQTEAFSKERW
UniProt O15530: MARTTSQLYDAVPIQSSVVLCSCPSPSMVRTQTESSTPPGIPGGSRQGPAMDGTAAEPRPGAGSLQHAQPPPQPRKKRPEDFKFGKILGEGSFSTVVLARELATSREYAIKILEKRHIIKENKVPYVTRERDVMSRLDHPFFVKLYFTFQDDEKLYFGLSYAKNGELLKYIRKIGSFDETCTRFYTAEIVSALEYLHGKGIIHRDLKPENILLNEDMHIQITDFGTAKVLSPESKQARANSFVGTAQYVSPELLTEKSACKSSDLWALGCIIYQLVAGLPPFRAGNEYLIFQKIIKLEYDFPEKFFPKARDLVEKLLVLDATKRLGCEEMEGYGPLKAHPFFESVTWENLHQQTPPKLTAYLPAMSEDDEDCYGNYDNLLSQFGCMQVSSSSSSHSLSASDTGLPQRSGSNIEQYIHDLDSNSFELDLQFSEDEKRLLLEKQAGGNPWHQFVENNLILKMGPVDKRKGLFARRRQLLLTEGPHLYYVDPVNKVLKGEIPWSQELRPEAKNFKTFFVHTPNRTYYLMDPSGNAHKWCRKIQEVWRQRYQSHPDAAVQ
UniProt O96013: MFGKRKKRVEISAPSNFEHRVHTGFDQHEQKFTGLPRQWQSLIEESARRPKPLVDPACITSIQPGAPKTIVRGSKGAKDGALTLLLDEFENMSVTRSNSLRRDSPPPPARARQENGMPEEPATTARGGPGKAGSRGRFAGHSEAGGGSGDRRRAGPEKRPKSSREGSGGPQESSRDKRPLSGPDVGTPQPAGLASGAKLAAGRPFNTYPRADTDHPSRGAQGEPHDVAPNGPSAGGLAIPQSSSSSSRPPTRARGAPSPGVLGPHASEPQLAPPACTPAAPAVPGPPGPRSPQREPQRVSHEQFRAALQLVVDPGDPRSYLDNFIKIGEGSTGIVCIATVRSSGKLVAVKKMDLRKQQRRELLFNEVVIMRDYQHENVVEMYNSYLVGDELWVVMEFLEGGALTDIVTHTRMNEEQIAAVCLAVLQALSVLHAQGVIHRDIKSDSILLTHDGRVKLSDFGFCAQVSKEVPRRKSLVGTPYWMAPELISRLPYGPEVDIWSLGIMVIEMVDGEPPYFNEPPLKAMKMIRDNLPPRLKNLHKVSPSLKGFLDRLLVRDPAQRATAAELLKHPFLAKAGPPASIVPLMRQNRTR

Compound: CC(=O)Nc1cccc(-n2c(=O)n(C3CC3)c(=O)c3c(Nc4ccc(I)cc4F)n(C)c(=O)c(C)c32)c1 [Trametinib (DMSO solvate)]
Assay: number of time points (of 5) at which kinase-Nluc abundance scored as decreased, DMSO-normalised (count); higher = more persistent destabilization
Settings: 10 µM; K562; 2-18 h

Q: How did the “number of time points” value turn out when PTK2 (UniProt Q05397) was run?
A: Its value is 0.

Q: For “RAF1_S257L (clone: RAF1_mut) (UniProt P04049)”, which “number of time points” value is on record?
A: Its value is 0.

Q: For CSNK1A1 (UniProt P48729), which “number of time points” value is on record?
A: The value was 4.

Q: With LIMK2 (UniProt P53671) as the target, how does the “number of time points” value read?
A: The value was 0.

Q: For PIK4CB (UniProt Q9UBF8), which “number of time points” value is on record?
A: The value was 0.

Q: With HER2 (UniProt P04626) as the target, how does the “number of time points” value read?
A: Its value is 2.

Q: With PTK2B (UniProt Q14289) as the target, how does the “number of time points” value read?
A: Its value is 0.

Q: How did the “number of time points” value turn out when AKT1 (UniProt P31749) was run?
A: The value was 0.

Q: Which “number of time points” value does the source give for NTRK3 (UniProt Q16288) here?
A: Its value is 0.

Q: MAPK1 (UniProt P28482) was tested. Which “number of time points” value did it give?
A: Its value is 0.

Q: For RIPK2 (UniProt O43353), which “number of time points” value is on record?
A: Its value is 0.

Q: How did the “number of time points” value turn out when AURKB (UniProt Q96GD4) was run?
A: Its value is 1.

Q: Which “number of time points” value does the source give for ERN1 (UniProt O75460) here?
A: The value was 0.

Q: Which “number of time points” value does the source give for CSNK1D (UniProt P48730) here?
A: The value was 0.

Q: How did the “number of time points” value turn out when ROR2 (UniProt Q01974) was run?
A: Its value is 0.

Q: FGFR1 (UniProt P11362) was tested. Which “number of time points” value did it give?
A: Its value is 0.

Q: Which “number of time points” value does the source give for STK38 (UniProt Q15208) here?
A: Its value is 0.

Q: Which “number of time points” value does the source give for CDK6 (UniProt Q00534) here?
A: The value was 0.

Q: For SYK (UniProt P43405), which “number of time points” value is on record?
A: Its value is 0.

Q: How did the “number of time points” value turn out when PDGFRB (UniProt P09619) was run?
A: The value was 2.

Q: For MAP2K1 (UniProt Q02750), which “number of time points” value is on record?
A: Its value is 0.

Q: For TYK2 (UniProt P29597), which “number of time points” value is on record?
A: Its value is 0.

Q: How did the “number of time points” value turn out when RIOK1 (UniProt Q9BRS2) was run?
A: Its value is 0.

Q: SPHK1 (UniProt Q9NYA1) was tested. Which “number of time points” value did it give?
A: Its value is 0.

Q: MAPK4 (UniProt P31152) was tested. Which “number of time points” value did it give?
A: The value was 0.

Q: For CDK10 (UniProt Q15131), which “number of time points” value is on record?
A: Its value is 0.

Q: For MAP2K2 (UniProt P36507), which “number of time points” value is on record?
A: The value was 0.

Q: For LIMK1 (UniProt P53667), which “number of time points” value is on record?
A: Its value is 0.

Q: With PDPK1 (UniProt O15530) as the target, how does the “number of time points” value read?
A: The value was 1.

Q: With PAK4 (UniProt O96013) as the target, how does the “number of time points” value read?
A: Its value is 0.

Q: How did the “number of time points” value turn out when BMX (UniProt P51813) was run?
A: Its value is 0.
